Assay results published in paper PMC3782503.
Results are given in words; binding and its absence hold for the method and conditions named. Binding seen in cells or lysates may run through a third protein. Some entries that bind do so weakly or less than the wild type.

Sequences of proteins named here, by UniProt entry; tags and fusion partners are left off. Residues count along the entry.
UniProt P19634: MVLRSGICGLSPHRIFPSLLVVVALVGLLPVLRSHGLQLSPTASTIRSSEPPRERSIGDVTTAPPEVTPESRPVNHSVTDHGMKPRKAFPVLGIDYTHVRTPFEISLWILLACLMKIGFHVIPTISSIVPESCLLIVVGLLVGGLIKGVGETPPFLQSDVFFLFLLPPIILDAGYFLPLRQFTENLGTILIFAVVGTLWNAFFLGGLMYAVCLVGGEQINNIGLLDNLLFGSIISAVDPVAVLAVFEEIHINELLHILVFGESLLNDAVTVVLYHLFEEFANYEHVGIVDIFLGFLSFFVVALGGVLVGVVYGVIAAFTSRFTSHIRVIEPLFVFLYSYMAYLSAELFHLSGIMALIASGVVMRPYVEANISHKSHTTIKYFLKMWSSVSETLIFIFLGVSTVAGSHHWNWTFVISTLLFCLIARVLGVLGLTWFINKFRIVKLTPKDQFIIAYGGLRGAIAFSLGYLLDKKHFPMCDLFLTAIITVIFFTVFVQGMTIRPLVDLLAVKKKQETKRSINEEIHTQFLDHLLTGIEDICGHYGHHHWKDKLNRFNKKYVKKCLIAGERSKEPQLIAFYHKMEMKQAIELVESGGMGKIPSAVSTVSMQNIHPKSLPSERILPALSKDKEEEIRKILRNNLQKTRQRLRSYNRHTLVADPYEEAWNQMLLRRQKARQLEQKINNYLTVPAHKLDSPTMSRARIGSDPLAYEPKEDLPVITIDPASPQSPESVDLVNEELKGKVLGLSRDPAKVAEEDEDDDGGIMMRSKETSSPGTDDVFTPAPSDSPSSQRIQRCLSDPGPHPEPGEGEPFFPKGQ
UniProt P15311: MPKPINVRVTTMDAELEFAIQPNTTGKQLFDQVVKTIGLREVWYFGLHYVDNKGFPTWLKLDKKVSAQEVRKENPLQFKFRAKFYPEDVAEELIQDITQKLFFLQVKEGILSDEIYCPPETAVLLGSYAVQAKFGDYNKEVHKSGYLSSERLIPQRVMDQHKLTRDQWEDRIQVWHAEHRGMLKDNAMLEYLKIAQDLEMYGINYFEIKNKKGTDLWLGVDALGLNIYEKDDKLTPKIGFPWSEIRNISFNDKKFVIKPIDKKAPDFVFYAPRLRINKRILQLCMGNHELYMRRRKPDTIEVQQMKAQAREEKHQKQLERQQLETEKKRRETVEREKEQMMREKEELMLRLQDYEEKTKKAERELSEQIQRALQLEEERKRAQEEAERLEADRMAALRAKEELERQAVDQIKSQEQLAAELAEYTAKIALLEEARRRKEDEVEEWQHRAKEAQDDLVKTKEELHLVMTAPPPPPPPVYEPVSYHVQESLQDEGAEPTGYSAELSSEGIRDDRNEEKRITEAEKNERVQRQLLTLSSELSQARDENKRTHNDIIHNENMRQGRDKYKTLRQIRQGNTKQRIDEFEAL
UniProt P16070, residues 21-742: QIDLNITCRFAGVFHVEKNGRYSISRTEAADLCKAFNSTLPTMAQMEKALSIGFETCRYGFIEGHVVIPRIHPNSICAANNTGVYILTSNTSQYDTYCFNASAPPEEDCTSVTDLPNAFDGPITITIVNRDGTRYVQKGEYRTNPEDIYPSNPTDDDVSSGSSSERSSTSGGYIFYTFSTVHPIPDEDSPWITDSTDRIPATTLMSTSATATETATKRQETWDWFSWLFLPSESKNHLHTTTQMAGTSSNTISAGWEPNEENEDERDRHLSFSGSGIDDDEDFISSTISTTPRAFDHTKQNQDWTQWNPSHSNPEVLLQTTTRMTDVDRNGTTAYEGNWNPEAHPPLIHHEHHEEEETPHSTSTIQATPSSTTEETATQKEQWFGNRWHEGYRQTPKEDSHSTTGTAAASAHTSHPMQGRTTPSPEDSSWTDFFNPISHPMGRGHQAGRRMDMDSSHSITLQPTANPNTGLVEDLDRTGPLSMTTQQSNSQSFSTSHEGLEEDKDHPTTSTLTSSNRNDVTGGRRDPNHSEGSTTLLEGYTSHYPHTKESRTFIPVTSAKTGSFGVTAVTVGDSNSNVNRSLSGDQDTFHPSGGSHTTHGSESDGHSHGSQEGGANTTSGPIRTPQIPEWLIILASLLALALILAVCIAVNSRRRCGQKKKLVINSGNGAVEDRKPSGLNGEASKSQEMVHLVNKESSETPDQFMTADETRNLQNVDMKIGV
UniProt P31323: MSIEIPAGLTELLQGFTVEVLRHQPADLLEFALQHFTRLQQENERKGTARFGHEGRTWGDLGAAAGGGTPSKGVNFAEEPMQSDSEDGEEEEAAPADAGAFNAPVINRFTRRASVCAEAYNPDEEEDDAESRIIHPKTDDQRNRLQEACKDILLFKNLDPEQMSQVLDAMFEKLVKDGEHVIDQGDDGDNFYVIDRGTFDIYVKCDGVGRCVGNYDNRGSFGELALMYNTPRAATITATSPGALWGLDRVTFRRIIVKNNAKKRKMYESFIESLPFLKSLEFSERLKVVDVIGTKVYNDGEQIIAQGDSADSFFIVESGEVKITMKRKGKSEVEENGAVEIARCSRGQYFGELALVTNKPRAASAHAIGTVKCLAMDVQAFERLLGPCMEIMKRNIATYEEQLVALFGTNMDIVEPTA

Columns and labels:
Assay in all cases: co-IP; about 300 µg protein of the membrane or invadopodia fraction of MDA-MB-231 cells plated 24 hr on 2% cross-linked gelatin; 1 µg anti-NHE1, anti-p-ezrin or anti-ezrin, 1 hour at 4°C, then Protein A/G PLUS-Agarose overnight; buffer 50 mM Tris pH 7.5, 150 mM NaCl, 1% NP-40, 0.5% sodium deoxycholate; 4 washes; Western blot
[1] = target: Na+/H+ exchanger type 1 (NHE1) (human (endogenous in MDA-MB-231)) (UniProt P19634)
[2] = target: ezrin phosphorylated at T567 (human (endogenous in MDA-MB-231)) (UniProt P15311)
[3] = target: total ezrin (human (endogenous in MDA-MB-231)) (UniProt P15311)

binding [1] | binding [2] | binding [3] | Substance
binds |  |  | CD44 (from UniProt P16070 21-742) (receptor)
binds |  |  | ezrin phosphorylated at T567 (from UniProt P15311 1-586)
binds | binds | binds | RIIß subunit of PKA (from UniProt P31323 1-418)
 | binds | binds weakly | Na+/H+ exchanger type 1 (NHE1) (from UniProt P19634 1-815)
